From patent US20080194611A1, “Modulation of Cell Barrier Dysfunction” (priority 2005, published 2008)
No constants are given. Whether binding was seen depends on the method and setting. Some entries that bind do so weakly or less than the wild type.

By UniProt entry, the sequences of proteins in these tests, tags left out. Residues count along the entry.
UniProt P01579, residues 24-166: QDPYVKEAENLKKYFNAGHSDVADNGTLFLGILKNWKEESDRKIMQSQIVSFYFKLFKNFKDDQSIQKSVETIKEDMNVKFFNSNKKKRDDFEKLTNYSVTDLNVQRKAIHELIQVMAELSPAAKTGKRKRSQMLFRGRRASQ

Legend:
[1] = molecular target: T1, P. aeruginosa outer membrane porin OprF (Pseudomonas aeruginosa (strain PAO1)) (UniProt P13794); experiment: summary of the examples' results
T1 sequence: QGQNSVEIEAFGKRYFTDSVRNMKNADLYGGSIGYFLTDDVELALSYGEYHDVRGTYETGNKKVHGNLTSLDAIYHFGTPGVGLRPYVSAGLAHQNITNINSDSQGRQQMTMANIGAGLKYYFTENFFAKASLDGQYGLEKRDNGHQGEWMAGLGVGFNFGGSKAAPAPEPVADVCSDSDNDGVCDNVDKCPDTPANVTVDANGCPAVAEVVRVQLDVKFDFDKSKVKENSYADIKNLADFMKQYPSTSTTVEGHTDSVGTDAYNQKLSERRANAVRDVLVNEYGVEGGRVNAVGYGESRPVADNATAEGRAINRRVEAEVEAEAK

[2] = molecular target: T1, P. aeruginosa outer membrane porin OprF (Pseudomonas aeruginosa (strain PAO1)); experiment: figure legend (graphs, bar charts, immunoblots)
[3] = molecular target: T1, P. aeruginosa outer membrane porin OprF (Pseudomonas aeruginosa (strain PAO1)); experiment: binding assay with purified OprF

Measured: binding

recombinant human IFN-γ (rH IFN-γ) (from UniProt P01579 24-166) (ligand)
binds: all assays above
